Where two headings read alike, the source gives them in different places. Some results were stated once for a whole list of compounds, not compound by compound.
How the values were obtained:
[1] = test system: Phytophthora infestans; assay type: in vivo; conditions: 200 ppm; tomato leaf disks, inoculated 1 day after application, assessed 5-7 days after application; compared to untreated
[2] = test system: Phytophthora infestans; assay type: in vivo; conditions: 200 ppm; potato plants cv. Bintje, inoculated 2 days after application, assessed 5-7 days after application; compared to untreated
[3] = test system: Phytophthora infestans; assay type: in vivo; conditions: 200 ppm; potato plants cv. Bintje, inoculated 6 days after application, assessed 9-11 days after application; compared to untreated
[4] = test system: Plasmopara viticola; experiment: Plasmopara viticola/Grape/Leaf Disc Preventative (Grape Downy Mildew); assay type: in vivo; conditions: 200 ppm; grape vine leaf disks, inoculated 1 day after application, assessed 6-8 days after application; compared to untreated
[5] = test system: Pythium ultimum; experiment: Pythium ultimum/Liquid Culture (Seedling Damping Off); assay type: cell-based; conditions: 200 ppm; liquid culture in PDB, 24° C., growth inhibition determined photometrically 2-3 days after application
[6] = test system: Pythium ultimum; experiment: Pythium ultimum/Cotton/Soil Drench (Seedling Damping Off); assay type: in vivo; conditions: 200 ppm; cotton cv. Sure Grow 747, soil drench after sowing, assessed 13-16 days after application; relative to untreated
[7] = test system: Plasmopara viticola; experiment: Plasmopara viticola/Grape/Preventative (Grape Downy Mildew); assay type: in vivo; conditions: 200 ppm; grape seedlings cv. Gutedel, inoculated one day after application, assessed 6-8 days after application; compared to untreated
[8] = test system: Plasmopara viticola; experiment: Plasmopara viticola/Grape/Long Lasting (Grape Downy Mildew); assay type: in vivo; conditions: 200 ppm; grape seedlings cv. Gutedel, inoculated 6 days after application, assessed 11-13 days after application; compared to untreated

Measured: disease control

Cc1cc(C(F)(F)F)nn1CC(=O)N1CCC(c2nc(NC(=O)c3ccc4ccccc4n3)cs2)CC1 [I.g.044]
at least 80%: [1] | [2] | [3] | [4]

Cc1cc(C(F)(F)F)nn1CC(=O)N1CCC(c2nc(NC(=O)c3cnc4ccccc4n3)cs2)CC1 [I.g.050]
at least 80%: [1] | [2] | [3]

Cc1cc(C(F)(F)F)nn1CC(=O)N1CCC(c2nc(NC(=O)c3cnn(-c4ccccc4)c3C)cs2)CC1 [I.g.010]
at least 80%: [1] | [2]

COc1ccnc(C(=O)Nc2csc(C3CCN(C(=O)Cn4nc(C(F)(F)F)cc4C)CC3)n2)c1O [I.g.025, 3-hydroxy-4-methoxy-pyridine-2-carboxylic acid (2-{1-[2-(5-methyl-3-trifluoromethyl-pyrazol-1-yl)-acetyl]-piperidin-4-yl}-thiazol-4-yl)-amide]
at least 80%: [1] | [2] | [3] | [5] | [6]

Cc1cc(C(F)(F)F)nn1CC(=O)N1CCC(c2nc(NC(=O)c3csnn3)cs2)CC1 [I.g.019]
at least 80%: [4]

Cc1cccnc1C(=O)Nc1csc(C2CCN(C(=O)Cn3nc(C(F)(F)F)cc3C)CC2)n1 [I.g.022]
at least 80%: [1] | [4] | [7] | [8]

Cc1cc(C(F)(F)F)nn1CC(=O)N1CCC(c2nc(NC(=O)c3cccnc3O)cs2)CC1 [I.g.028]
at least 80%: [1]

Cc1cc(C(F)(F)F)nn1CC(=O)N1CCC(c2nc(NC(=O)c3csc([N+](=O)[O-])n3)cs2)CC1 [I.g.018]
at least 80%: [1] | [2] | [5]

Cc1cc(C(F)(F)F)nn1CC(=O)N1CCC(c2nc(NC(=O)c3ccc(-c4ccccn4)s3)cs2)CC1 [I.g.006]
at least 80%: [1] | [4] | [7] | [8]

Cc1cc(C(F)(F)F)nn1CC(=O)N1CCC(c2nc(NC(=O)c3cccs3)cs2)CC1 [I.g.005]
at least 80%: [4] | [7] | [8]

Cc1cc(C(F)(F)F)nn1CC(=O)N1CCC(c2nc(NC(=O)c3cnc4sccn34)cs2)CC1 [I.g.042]
not listed: [2] | [3]
at least 80%: all other assays above

Cc1cc(C(F)(F)F)nn1CC(=O)N1CCC(c2nc(NC(=O)c3ccco3)cs2)CC1 [I.g.001]
at least 80%: [1] | [2] | [3] | [4] | [7]

Cc1cc(C(F)(F)F)nn1CC(=O)N1CCC(c2nc(NC(=O)c3ncccc3O)cs2)CC1 [I.g.023, 3-Hydroxy-pyridine-2-carboxylic acid (2-{1-[2-(5-methyl-3-trifluoromethyl-pyrazol-1-yl)acetyl]-piperidin-4-yl}-thiazol-4-yl)-amide]
not listed: [8]
at least 80%: all other assays above
